Measured values as given in publication PMC3470543, “Effects of the Missense Mutations in Canine BRCA2 on BRC Repeat 3 Functions and Comparative Analyses between Canine and Human BRC Repeat 3” (PLoS ONE, 2012).
Residue numbers refer to the chain shown, from its start. Results are given in words; binding and its absence hold for the method and conditions named. Some entries that bind do so weakly or less than the wild type. For some assays here: Where a sequence is shown, tags or fusion partners need not be part of it.

Amino acid sequences for entries named in this document (tags omitted).
UniProt Q8MKI8: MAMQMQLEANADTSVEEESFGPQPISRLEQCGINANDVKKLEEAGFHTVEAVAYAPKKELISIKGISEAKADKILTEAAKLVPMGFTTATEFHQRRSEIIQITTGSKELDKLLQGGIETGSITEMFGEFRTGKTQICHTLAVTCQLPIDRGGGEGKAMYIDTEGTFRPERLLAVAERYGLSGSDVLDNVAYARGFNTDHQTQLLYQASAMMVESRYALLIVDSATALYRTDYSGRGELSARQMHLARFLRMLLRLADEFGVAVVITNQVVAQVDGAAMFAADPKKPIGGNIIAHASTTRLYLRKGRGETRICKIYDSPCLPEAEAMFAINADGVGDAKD

Legend:
[1] = molecular target: T1, Gal4-DBD-fused K1435R mutant canine BRC3 (canine) (UniProt Q8MKI9); assay: two-hybrid; mammalian two-hybrid in HeLa cells: Gal4-DBD-fused BRC constructs and VP16 transactivation domain-fused RAD51; luciferase (pGluc, normalised to pRL-TK) 48 h after transfection
T1 sequence: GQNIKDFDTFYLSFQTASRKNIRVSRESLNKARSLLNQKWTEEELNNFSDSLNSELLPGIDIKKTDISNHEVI

[2] = molecular target: T2, Gal4-DBD-fused wild-type canine BRC3 (canine) (UniProt Q8MKI9); assay: as above
T2 sequence: T1 sequence with R26K

[3] = molecular target: VP16 transactivation domain-fused canine RAD51 (canine) (UniProt Q8MKI8); assay: two-hybrid; modified mammalian two-hybrid (binding interference) in HeLa cells: VP16- and DBD-fused RAD51 with EGFP-fused BRC3 interference constructs

Substance	binding [1]	binding [2]	binding [3]
VP16 transactivation domain-fused human RAD51 (from UniProt Q06609-1 1-339)	binds	binds	
VP16 transactivation domain-fused canine RAD51 (from UniProt Q8MKI8 1-339)	binds	binds	binds
